Source: PMC8608314

Amino acid sequences for entries named in this document (tags omitted). A change or cut given only in a name is not applied to a line headed by its entry.
UniProt Q386T3: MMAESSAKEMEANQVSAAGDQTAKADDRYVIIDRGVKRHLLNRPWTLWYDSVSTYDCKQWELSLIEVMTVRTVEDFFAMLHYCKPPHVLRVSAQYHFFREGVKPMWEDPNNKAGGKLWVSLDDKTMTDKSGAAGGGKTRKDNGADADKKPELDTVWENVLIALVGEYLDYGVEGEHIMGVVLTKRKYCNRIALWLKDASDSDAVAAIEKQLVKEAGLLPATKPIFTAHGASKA
UniProt Q38DR9: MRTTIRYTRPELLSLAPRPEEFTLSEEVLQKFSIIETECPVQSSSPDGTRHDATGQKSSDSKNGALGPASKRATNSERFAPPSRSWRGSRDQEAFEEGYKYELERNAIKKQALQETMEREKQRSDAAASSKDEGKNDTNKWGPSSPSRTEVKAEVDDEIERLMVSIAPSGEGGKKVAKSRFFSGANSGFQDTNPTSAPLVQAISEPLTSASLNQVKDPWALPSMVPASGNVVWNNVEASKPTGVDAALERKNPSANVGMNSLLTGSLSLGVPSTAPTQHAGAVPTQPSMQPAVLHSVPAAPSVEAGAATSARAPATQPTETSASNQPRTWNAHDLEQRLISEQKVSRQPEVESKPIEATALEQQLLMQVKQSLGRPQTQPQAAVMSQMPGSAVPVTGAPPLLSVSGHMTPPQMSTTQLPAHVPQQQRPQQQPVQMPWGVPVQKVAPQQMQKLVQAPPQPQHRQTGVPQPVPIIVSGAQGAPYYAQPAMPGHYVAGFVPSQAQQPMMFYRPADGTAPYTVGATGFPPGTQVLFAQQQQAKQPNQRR

B1: ERF1 eukaryotic peptide chain release factor subunit (protein, UniProt Q9NAX8 1-452)
chain: MTDHELSESEKAIERYKVKKLIQMLESARGMGTSVISIYMTPKEQISGMVTKLNNEYGTASNIKSHTNKLSVQSAITASLGRLKQYNRLPPNGLLLYCGTVLTAENKEKKLTLDIEPFKPVSRSLYLCDNKFHTEELHRMLESDEKFGFIVVDGSGTTYATLCGSVKEKLSSFTVELPKKHGRGGQSKNRFARIRMERRHNYLRKVAEGATQLFITNDRPNIVGLVLAGSAEFKEVLYQSDLFDPRLKAIVVKVVDVAHPGDVGLNQAIDLAADALSGVKLVQEKKLLQGFFDQIACDTQLYCFGVQDTLKCLEAGAVETLIVYEDLNIYRYTVVKNRGADDEETFVHVMSEEEAKRSNIHMQESGKTRNEIEQEDFVDWLATNYRKFGCALELITNRSQEGTQFVRGFGGIGGVLRYKLDIIALRDVEKKEDDEERIAANNEEFDFDDDFM

Columns and labels:
[1] = target: EIF4E1-PTP (Trypanosoma brucei) (UniProt Q386T3); assay: affinity purification with mass spectrometry; procyclic forms with both 4EIP gene copies (+4EIP); EIF4E1-PTP or GFP-PTP (control) captured from lysate on IgG magnetic beads, 150 mM KCl, 4°C, four washes, release by TEV cleavage, quantitative LC-MS2; three preparations
[2] = target: EIF4E1-PTP (Trypanosoma brucei) (UniProt Q386T3); assay: affinity purification with mass spectrometry; procyclic forms lacking 4EIP (4EIP knockout, -4EIP); EIF4E1-PTP captured from lysate on IgG magnetic beads, 150 mM KCl, 4°C, four washes, release by TEV cleavage, quantitative LC-MS2; three preparations

Molecule	binding [1]	binding [2]
4E-interacting protein 4EIP (from UniProt Q38DR9)	binds	–
B1	binds	no binding (only in procyclic forms lacking 4EIP)

No constants are given. Whether binding was seen depends on the method and setting. Binding seen in cells or lysates may run through a third protein. A yes stands for co-enrichment or nearness to the bait. Other partners may have been found. For part of these data: No binding means not detected with the bait.
